# Assay results: PMC7435819, “Towards the Inhibition of Protein–Protein Interactions (PPIs) in STAT3: Insights into a New Class of Benzothiadiazole Derivatives” (Molecules, 2020)
# Assay: MS study of covalent adduct formation with glutathione
# Conditions: 37 °C; for covalent adducts with GSH (MS): neutral or basic pH (pH 7.4, pH 10), up to 24 h
SMILES,reactivity with GSH (MS) (acidic pH (pH 2 buffer)),covalent adducts with GSH (MS)
"Cc1cc2c(cc1C)NS(=O)(=O)N2 [Compound 1, 5,6-Dimethyl-1H,3H-2,1,3-benzothiadiazole-2,2-dioxide]",no reactivity was observed,stable covalent adducts
"O=[N+]([O-])c1ccc2c(c1)NS(=O)(=O)N2 [Compound 1d, 5-Nitro-1H,3H-2,1,3-benzothiadiazole-2,2-dioxide]",,no adducts were detectable
